Laboratory results as given in the supplement of paper PMC6411743.
± gives the standard deviation of the averaged measurements. The list shows a part of the results, in another mix than the full data. Small differences around the control level are noise.

The chains behind the UniProt entries cited, without tags or fusion partners. Where a name states a change or a piece, a line headed by the entry shows the natural chain unless it says otherwise.
UniProt Q96PE7: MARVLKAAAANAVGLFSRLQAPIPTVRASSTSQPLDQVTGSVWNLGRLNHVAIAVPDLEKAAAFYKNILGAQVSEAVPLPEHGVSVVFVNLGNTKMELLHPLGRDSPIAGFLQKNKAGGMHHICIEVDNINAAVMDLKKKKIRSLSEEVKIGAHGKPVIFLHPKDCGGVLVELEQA
UniProt Q96F07, whole entry: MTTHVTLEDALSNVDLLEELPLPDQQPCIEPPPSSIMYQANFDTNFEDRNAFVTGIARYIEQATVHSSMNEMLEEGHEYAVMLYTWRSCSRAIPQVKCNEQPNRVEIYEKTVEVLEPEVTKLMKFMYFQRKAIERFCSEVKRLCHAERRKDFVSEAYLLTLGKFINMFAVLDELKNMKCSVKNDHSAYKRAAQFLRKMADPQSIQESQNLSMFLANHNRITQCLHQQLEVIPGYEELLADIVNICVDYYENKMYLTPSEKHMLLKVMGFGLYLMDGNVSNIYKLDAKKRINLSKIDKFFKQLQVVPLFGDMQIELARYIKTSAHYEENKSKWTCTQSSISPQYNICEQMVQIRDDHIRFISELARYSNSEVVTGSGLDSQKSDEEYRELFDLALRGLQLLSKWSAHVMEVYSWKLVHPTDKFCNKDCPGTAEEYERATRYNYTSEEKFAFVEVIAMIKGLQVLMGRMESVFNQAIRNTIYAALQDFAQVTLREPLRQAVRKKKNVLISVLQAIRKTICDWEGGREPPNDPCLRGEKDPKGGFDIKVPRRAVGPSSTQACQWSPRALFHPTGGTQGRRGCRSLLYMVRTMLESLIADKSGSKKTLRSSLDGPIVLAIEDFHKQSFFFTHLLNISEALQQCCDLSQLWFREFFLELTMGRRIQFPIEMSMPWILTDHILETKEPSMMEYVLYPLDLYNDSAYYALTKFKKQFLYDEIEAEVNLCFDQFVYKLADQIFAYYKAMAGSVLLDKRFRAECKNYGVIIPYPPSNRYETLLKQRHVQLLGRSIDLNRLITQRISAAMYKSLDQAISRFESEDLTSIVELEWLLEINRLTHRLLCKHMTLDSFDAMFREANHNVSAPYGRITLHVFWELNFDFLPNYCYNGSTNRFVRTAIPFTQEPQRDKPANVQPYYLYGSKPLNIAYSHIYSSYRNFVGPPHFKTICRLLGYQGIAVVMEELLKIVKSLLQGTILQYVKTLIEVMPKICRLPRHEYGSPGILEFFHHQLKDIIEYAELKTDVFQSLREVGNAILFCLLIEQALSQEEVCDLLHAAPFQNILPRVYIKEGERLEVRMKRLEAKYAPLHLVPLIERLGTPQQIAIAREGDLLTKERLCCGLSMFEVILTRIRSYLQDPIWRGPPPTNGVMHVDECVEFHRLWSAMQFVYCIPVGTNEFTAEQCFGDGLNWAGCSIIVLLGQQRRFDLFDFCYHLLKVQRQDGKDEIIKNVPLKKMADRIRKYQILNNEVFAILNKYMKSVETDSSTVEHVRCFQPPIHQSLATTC
UniProt Q96CW5, whole entry: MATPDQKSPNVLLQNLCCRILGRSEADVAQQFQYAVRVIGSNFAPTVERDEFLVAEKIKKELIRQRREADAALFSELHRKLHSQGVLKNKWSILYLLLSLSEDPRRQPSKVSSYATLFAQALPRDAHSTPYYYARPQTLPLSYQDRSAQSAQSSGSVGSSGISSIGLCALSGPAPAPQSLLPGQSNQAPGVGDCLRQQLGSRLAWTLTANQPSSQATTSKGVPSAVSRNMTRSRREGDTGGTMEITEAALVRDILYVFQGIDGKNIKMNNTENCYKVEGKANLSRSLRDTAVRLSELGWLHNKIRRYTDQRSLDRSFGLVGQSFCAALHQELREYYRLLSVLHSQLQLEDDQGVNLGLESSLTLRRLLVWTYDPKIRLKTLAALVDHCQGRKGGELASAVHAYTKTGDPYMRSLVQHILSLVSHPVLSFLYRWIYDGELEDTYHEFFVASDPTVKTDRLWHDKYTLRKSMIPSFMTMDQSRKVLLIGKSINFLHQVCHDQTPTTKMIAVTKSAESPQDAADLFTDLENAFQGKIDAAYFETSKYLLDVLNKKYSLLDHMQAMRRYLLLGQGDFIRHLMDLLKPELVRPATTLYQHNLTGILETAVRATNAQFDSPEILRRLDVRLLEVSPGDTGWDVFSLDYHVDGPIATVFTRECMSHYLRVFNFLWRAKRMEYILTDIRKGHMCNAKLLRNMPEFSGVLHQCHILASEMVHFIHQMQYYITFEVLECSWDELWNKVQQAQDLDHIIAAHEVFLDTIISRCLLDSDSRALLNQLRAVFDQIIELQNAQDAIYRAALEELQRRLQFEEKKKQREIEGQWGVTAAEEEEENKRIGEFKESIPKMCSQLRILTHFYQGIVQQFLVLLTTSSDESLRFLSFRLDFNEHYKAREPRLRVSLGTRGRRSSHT
UniProt Q96BS2: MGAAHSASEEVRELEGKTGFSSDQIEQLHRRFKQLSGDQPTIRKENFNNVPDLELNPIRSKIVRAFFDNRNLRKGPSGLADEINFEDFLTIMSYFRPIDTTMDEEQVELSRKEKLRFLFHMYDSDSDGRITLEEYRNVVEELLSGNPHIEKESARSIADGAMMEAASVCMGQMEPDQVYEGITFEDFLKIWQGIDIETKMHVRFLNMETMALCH
UniProt Q96S55: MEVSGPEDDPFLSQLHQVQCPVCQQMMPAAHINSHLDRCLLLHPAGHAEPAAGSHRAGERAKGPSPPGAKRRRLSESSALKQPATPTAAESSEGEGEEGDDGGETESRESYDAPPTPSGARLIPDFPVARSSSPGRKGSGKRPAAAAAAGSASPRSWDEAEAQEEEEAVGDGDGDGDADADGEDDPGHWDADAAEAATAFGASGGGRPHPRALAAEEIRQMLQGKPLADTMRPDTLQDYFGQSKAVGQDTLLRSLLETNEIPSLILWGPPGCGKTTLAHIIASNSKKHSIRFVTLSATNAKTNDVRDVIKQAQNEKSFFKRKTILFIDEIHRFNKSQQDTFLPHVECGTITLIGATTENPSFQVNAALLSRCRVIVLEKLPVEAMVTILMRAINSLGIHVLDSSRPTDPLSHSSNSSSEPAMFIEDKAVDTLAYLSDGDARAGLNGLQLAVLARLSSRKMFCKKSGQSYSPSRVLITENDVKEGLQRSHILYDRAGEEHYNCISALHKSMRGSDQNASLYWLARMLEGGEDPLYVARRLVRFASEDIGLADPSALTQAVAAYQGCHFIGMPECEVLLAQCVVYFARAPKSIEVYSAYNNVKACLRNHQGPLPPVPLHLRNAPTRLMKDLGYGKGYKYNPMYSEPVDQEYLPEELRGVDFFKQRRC
UniProt Q96F86: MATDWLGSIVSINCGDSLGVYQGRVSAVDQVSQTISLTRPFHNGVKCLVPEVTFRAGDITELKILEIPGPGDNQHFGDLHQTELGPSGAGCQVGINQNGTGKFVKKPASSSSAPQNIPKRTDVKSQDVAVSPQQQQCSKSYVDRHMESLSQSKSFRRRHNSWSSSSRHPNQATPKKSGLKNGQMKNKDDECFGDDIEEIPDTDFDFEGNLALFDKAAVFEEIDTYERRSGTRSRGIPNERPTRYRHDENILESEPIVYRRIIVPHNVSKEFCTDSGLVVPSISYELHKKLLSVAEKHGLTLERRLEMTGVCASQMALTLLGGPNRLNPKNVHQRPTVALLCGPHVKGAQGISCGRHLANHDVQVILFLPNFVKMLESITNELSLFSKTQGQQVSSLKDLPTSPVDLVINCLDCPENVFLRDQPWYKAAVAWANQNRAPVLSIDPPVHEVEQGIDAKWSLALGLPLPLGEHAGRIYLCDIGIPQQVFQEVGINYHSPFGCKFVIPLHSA
UniProt Q96FK6: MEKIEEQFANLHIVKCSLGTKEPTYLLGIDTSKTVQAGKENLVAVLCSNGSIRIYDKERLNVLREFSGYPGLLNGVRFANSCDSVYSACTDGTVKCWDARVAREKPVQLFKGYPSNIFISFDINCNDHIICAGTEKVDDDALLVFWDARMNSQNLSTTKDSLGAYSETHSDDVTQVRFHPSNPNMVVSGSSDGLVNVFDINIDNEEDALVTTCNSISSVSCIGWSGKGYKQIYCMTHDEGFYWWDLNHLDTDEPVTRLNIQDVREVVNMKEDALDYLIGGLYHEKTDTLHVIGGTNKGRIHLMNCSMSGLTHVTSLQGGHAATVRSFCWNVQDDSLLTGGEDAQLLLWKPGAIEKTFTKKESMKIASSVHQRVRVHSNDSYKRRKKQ
UniProt Q96PY6: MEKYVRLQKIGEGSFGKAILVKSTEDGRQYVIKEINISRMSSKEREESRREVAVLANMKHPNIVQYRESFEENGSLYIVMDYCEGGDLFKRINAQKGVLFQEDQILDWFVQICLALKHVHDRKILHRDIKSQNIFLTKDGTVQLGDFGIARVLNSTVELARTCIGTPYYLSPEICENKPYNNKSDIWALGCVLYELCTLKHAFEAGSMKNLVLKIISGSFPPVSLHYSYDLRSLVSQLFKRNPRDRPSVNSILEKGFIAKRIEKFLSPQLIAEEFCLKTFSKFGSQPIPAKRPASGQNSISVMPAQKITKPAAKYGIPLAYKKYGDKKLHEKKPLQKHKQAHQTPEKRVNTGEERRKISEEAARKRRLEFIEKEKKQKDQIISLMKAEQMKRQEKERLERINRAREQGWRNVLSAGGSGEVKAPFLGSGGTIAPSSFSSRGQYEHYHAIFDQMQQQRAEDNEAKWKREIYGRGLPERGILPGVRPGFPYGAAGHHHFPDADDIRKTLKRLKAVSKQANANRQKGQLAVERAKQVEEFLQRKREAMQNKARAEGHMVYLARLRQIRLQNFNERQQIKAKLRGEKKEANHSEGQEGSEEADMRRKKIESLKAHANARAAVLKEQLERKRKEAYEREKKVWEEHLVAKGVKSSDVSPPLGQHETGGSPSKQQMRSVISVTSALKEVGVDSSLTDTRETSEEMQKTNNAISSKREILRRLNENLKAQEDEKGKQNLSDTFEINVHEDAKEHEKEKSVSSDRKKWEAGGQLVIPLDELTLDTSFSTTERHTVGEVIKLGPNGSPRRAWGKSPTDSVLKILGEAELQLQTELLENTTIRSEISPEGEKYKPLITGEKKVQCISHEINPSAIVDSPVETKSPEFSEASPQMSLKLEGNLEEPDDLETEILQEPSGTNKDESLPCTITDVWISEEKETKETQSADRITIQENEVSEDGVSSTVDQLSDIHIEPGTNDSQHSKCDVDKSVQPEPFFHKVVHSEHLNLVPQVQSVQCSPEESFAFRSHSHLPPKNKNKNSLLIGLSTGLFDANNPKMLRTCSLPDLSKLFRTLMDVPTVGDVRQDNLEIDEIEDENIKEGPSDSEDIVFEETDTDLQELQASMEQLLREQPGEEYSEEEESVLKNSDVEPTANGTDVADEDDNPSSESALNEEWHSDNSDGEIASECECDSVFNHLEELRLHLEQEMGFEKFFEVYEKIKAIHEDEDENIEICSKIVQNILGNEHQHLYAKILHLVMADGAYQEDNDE
UniProt Q96KP4: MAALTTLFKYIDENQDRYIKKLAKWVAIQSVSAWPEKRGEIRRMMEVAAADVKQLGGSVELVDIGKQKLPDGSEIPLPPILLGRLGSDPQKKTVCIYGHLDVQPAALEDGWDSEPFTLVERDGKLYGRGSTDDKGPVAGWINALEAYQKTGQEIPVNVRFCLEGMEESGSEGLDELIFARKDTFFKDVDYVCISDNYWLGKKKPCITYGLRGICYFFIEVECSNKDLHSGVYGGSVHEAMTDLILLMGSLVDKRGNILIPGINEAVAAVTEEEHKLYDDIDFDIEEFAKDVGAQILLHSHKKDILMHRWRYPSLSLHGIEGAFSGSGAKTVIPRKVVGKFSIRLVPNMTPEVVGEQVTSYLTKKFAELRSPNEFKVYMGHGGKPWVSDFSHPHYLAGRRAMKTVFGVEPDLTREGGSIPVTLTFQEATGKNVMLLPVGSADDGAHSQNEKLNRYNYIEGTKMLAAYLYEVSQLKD
UniProt Q96LT7: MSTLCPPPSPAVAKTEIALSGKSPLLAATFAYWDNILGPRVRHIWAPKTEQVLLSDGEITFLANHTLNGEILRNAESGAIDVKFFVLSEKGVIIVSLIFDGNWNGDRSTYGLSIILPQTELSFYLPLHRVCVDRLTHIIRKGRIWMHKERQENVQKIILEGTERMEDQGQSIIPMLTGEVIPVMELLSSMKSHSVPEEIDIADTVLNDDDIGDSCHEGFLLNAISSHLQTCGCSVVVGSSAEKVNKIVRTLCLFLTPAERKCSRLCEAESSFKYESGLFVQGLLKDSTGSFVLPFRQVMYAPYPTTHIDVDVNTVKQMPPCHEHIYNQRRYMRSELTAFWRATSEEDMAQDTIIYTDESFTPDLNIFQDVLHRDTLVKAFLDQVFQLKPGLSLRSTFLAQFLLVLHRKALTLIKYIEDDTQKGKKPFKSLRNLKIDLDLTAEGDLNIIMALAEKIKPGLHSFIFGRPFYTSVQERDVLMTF
UniProt Q96BX8: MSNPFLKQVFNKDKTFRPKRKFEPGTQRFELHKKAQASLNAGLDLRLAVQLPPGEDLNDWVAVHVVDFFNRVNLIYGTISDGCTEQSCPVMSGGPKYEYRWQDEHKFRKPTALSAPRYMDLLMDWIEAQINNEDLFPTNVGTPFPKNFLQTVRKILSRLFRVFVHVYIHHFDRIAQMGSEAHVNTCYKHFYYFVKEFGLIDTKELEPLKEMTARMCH

Compound: Nc1ncnc2c1ncn2[C@@H]1O[C@H](COP(=O)(O)OP(=O)(O)OP(=O)(O)O)[C@@H](O)[C@H]1O [adenosine triphosphate]
Assay: NP40-soluble protein abundance relative to vehicle (solubility fold change) (ratio); higher = more soluble protein in presence of ATP
Procedure, shortened: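 Jurkat crude lysate (Dounce-homogenised) was treated with eight concentrations from 0.1 to 10 mM for 10 min at room temperature, then 3 min at 37 °C. It was solubilised with 0.8% NP40 and benzonase (60 min, 4 °C) and ultracentrifuged, and the supernatant was TMT-labelled for LC-MS/MS. Intensities were vsn-normalised, and the value is the fold change against the NP40-processed vehicle per replicate, from three independent experiments.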

Target	NP40-soluble protein abundance (concentration: 0.1mM)	NP40-soluble protein abundance (concentration: 0.5mM)
UniProt Q96RL7-4|Q96RL7 and related entries	1.06 ± 0.072	1.05 ± 0.027
MCEE (UniProt Q96PE7)	0.937 ± 0.026	0.95 ± 0.037
UniProt Q96F07-2|E7EVJ5	1.05 ± 0.034	0.995 ± 0.014
UniProt Q96GX9 and related entries	1.046 ± 0.0022	1.02 ± 0.05
DHRS1 (UniProt Q96LJ7)	1.05 ± 0.069	1.07 ± 0.036
UniProt Q96RN5 and related entries	0.92 ± 0.1	0.976 ± 0.12
UniProt Q96D71 and related entries	1.03 ± 0.018	1.04 ± 0.032
UniProt Q96G74 and related entries	1.04 ± 0.014	1.02 ± 0.065
SIPA1 (UniProt Q96FS4)	0.909 ± 0.046	0.911 ± 0.017
ZFR (UniProt Q96KR1)	0.99 ± 0.053	1.01 ± 0.071
TUBGCP3 (UniProt Q96CW5)	0.994 ± 0.1	1.03 ± 0.077
UniProt Q96BS2 and related entries	0.998 ± 0.084	0.984 ± 0.098
ATXN7L3B (UniProt Q96GX2)	0.941 ± 0.1	0.83 ± 0.18
UniProt Q96S55 and related entries	1.05 ± 0.014	1.03 ± 0.047
EDC3 (UniProt Q96F86)	1.04 ± 0.064	1.09 ± 0.085
UniProt Q96N66 and related entries	1.06 ± 0.067	1.04 ± 0.024
SFXN2 (UniProt Q96NB2)	0.993 ± 0.015	1.07 ± 0.041
UniProt Q96HA7 and related entries	1 ± 0.065	0.986 ± 0.021
UniProt Q96RQ3 and related entries	1.08 ± 0.011	1.02 ± 0.041
WDR89 (UniProt Q96FK6)	1.1 ± 0.074	1.11 ± 0.057
UniProt Q96PY6 and related entries	0.987 ± 0.05	1.03 ± 0.015
CNDP2 (UniProt Q96KP4)	1.05 ± 0.058	1.07 ± 0.1
C9orf72 (UniProt Q96LT7)	1.15 ± 0.27	0.9953 ± 0.0061
UniProt Q96GM5 and related entries	0.9946 ± 0.0057	1.05 ± 0.034
HSPBAP1 (UniProt Q96EW2)	1.02 ± 0.071	0.956 ± 0.055
PAWR (UniProt Q96IZ0)	0.963 ± 0.04	0.98 ± 0.034
UniProt Q96BX8	1.02 ± 0.061	1.01 ± 0.052
UniProt Q96NC0	0.973 ± 0.027	1.03 ± 0.027
UniProt Q96HH6 and related entries	1.03 ± 0.06	1.07 ± 0.0045
UniProt Q96QZ7 and related entries	1.009 ± 0.002	1.11 ± 0.022

Record cards (already shown):
UniProt Q96GM5 and related entries is listed as NP40-soluble protein abundance (concentration: 0.1mM): 0.9946 ± 0.0057; NP40-soluble protein abundance (concentration: 0.5mM): 1.05 ± 0.034
UniProt Q96GX9 and related entries is listed as NP40-soluble protein abundance (concentration: 0.1mM): 1.046 ± 0.0022; NP40-soluble protein abundance (concentration: 0.5mM): 1.02 ± 0.05
